Source: US9134318B2, “Detection of oxidized polypeptides” (Purdue Research Foundation, priority 2009, dated 2015)

B1: Apolipoprotein C-IV precursor (protein, UniProt P55056 28-127, looked up)
pro-form: QPEAQEGTLSPPPKLKMSRWSLVRGRMKELLETVVNRTRDGWQWFWSPSTFRGFMQTYYDDHLRDLGPLTKAWFLESKDSLLKKTHSLCPRLVCGDKDQG
modifications: pro-form
B2: Apolipoprotein C-I precursor (protein, UniProt P02654 1-83, looked up)
chain: MRLFLSLPVLVVVLSIVLEGPAPAQGTPDVSSALDKLKEFGNTLEDKARELISRIKQSELSAKMREWFSETFQKVKEKLKIDS
modifications: full-length oxidized
B3: CD5 antigen-like precursor (protein, UniProt O43866 1-347, looked up)
chain: MALLFSLILAICTRPGFLASPSGVRLVGGLHRCEGRVEVEQKGQWGTVCDDGWDIKDVAVLCRELGCGAASGTPSGILYEPPAEKEQKVLIQSVSCTGTEDTLAQCEQEEVYDCSHDEDAGASCENPESSFSPVPEGVRLADGPGHCKGRVEVKHQNQWYTVCQTGWSLRAAKVVCRQLGCGRAVLTQKRCNKHAYGRKPIWLSQMSCSGREATLQDCPSGPWGKNTCNHDEDTWVECEDPFDLRLVGGDNLCSGRLEVLHKGVWGSVCDDNWGEKEDQVVCKQLGCGKSLSPSFRDRKCYGPGVGRIWLDNVRCSGEEQSLEQCQHRFWGFHDCTHQEDVAVICSG
modifications: full-length oxidized
B4: IGHA2_HUMAN (protein, UniProt P01877 1-391, looked up)
Immunoglobulin heavy constant …: ASPTSPKVFPLSLDSTPQDGNVVVACLVQGFFPQEPLSVTWSESGQNVTARNFPPSQDASGDLYTTSSQLTLPATQCPDGKSVTCHVKHYTNSSQDVTVPCRVPPPPPCCHPRLSLHRPALEDLLLGSEANLTCTLTGLRDASGATFTWTPSSGKSAVQGPPERDLCGCYSVSSVLPGCAQPWNHGETFTCTAAHPELKTPLTANITKSGNTFRPEVHLLPPPSEELALNELVTLTCLARGFSPKDVLVRWLQGSQELPREKYLTWASRQEPSQGTTTYAVTSILRVAAEDWKKGETFSCMVGHEALPLAFTQKTIDRMAGSCCVADWQMPPPYVVLDLPQETLEEETPGANLWPTTITFLTLFLLSLFYSTALTVTSVRGPSGKREGPQY
B5: C4b-binding protein alpha chain precursor (protein, UniProt P04003 1-597, looked up)
chain: MHPPKTPSGALHRKRKMAAWPFSRLWKVSDPILFQMTLIAALLPAVLGNCGPPPTLSFAAPMDITLTETRFKTGTTLKYTCLPGYVRSHSTQTLTCNSDGEWVYNTFCIYKRCRHPGELRNGQVEIKTDLSFGSQIEFSCSEGFFLIGSTTSRCEVQDRGVGWSHPLPQCEIVKCKPPPDIRNGRHSGEENFYAYGFSVTYSCDPRFSLLGHASISCTVENETIGVWRPSPPTCEKITCRKPDVSHGEMVSGFGPIYNYKDTIVFKCQKGFVLRGSSVIHCDADSKWNPSPPACEPNSCINLPDIPHASWETYPRPTKEDVYVVGTVLRYRCHPGYKPTTDEPTTVICQKNLRWTPYQGCEALCCPEPKLNNGEITQHRKSRPANHCVYFYGDEISFSCHETSRFSAICQGDGTWSPRTPSCGDICNFPPKIAHGHYKQSSSYSFFKEEIIYECDKGYILVGQAKLSCSYSHWSAPAPQCKALCRKPELVNGRLSVDKDQYVEPENVTIQCDSGYGVVGPQSITCSGNRTWYPEVPKCEWETPEGCEQVLTGKRLMQCLPNPEDVKMALEVYKLSLEIEQLELQRDSARQSTLDKEL
modifications: full-length oxidized
B6: Apolipoprotein-L1 precursor (protein, UniProt O14791 28-398, looked up)
pro-form: EEAGARVQQNVPSGTDTGDPQSKPLGDWAAGTMDPESSIFIEDAIKYFKEKVSTQNLLLLLTDNEAWNGFVAAAELPRNEADELRKALDNLARQMIMKDKNWHDKGQQYRNWFLKEFPRLKSELEDNIRRLRALADGVQKVHKGTTIANVVSGSLSISSGILTLVGMGLAPFTEGGSLVLLEPGMELGITAALTGITSSTMDYGKKWWTQAQAHDLVIKSLDKLKEVREFLGENISNFLSLAGNTYQLTRGIGKDIRALRRARANLQSVPHASASRPRVTEPISAESGEQVERVNEPSILEMSRGVKLTDVAPVSFFLVLDVVYLVYESKHLHEGAKSETAEELKKVAQELEEKLNILNNNYKILQADQEL
modifications: pro-form
B7: C4BP_HUMAN (protein, UniProt P04003 49-597, looked up)
C4b-binding protein alpha …: NCGPPPTLSFAAPMDITLTETRFKTGTTLKYTCLPGYVRSHSTQTLTCNSDGEWVYNTFCIYKRCRHPGELRNGQVEIKTDLSFGSQIEFSCSEGFFLIGSTTSRCEVQDRGVGWSHPLPQCEIVKCKPPPDIRNGRHSGEENFYAYGFSVTYSCDPRFSLLGHASISCTVENETIGVWRPSPPTCEKITCRKPDVSHGEMVSGFGPIYNYKDTIVFKCQKGFVLRGSSVIHCDADSKWNPSPPACEPNSCINLPDIPHASWETYPRPTKEDVYVVGTVLRYRCHPGYKPTTDEPTTVICQKNLRWTPYQGCEALCCPEPKLNNGEITQHRKSRPANHCVYFYGDEISFSCHETSRFSAICQGDGTWSPRTPSCGDICNFPPKIAHGHYKQSSSYSFFKEEIIYECDKGYILVGQAKLSCSYSHWSAPAPQCKALCRKPELVNGRLSVDKDQYVEPENVTIQCDSGYGVVGPQSITCSGNRTWYPEVPKCEWETPEGCEQVLTGKRLMQCLPNPEDVKMALEVYKLSLEIEQLELQRDSARQSTLDKEL
B8: WD repeat protein 89 (protein, UniProt Q96FK6 1-387, looked up)
WD repeat-containing protein …: MEKIEEQFANLHIVKCSLGTKEPTYLLGIDTSKTVQAGKENLVAVLCSNGSIRIYDKERLNVLREFSGYPGLLNGVRFANSCDSVYSACTDGTVKCWDARVAREKPVQLFKGYPSNIFISFDINCNDHIICAGTEKVDDDALLVFWDARMNSQNLSTTKDSLGAYSETHSDDVTQVRFHPSNPNMVVSGSSDGLVNVFDINIDNEEDALVTTCNSISSVSCIGWSGKGYKQIYCMTHDEGFYWWDLNHLDTDEPVTRLNIQDVREVVNMKEDALDYLIGGLYHEKTDTLHVIGGTNKGRIHLMNCSMSGLTHVTSLQGGHAATVRSFCWNVQDDSLLTGGEDAQLLLWKPGAIEKTFTKKESMKIASSVHQRVRVHSNDSYKRRKKQ

Legend:
[1] = test system: carbonylated plasma proteins; assay: iTRAQ and MALDI/TOF/TOF quantitative comparison of avidin-selected carbonylated proteins, breast cancer patients vs controls (Table 8); parameters: species or system Homo sapiens; details: avidin-selected carbonylated protein in plasma, breast cancer patient vs matched control, iTRAQ; repeated lines of a protein = different donors; negative = lower in cancer
[2] = test system: carbonylated plasma proteins; assay: MALDI/TOF/TOF identification of avidin-selected carbonylated proteins in normal human plasma (Table 6); details: MALDI-MS/MS (ABI 4800 plus)

| Molecule | Breast cancer/control (fold change) [1] [fold change] | further results |
| --- | --- | --- |
| B1 | 2.2 |  |
| B2 | −2.0 |  |
| B3 | 2.0 |  |
| B4 |  | Number of unique peptides assigned to the protein ([2]; Donor 2): 3.52 |
| B5 | 1.7 |  |
| B6 | 5.0 |  |
| B7 |  | Number of unique peptides assigned to the protein ([2]; Donor 3): 10.35 |
| B8 | −4.5 |  |
